For some of these results: No signal at the amounts used counts as a negative. Protein sequences can lack the tags named with them. For some of these results: A weaker result is weaker than the reference pair of the same experiment. For some of these results: Construct, isoform or probe ends are uncertain for at least one entry.
Columns and labels:
[1] = target: T1, hRORα1 (RORA isoform 1) (Homo sapiens) (UniProt P35398); experiment: EMSA; conditions: protein translated in vitro, protein details: TnT T7 reticulocyte lysate from pCMX-hRORα1, label: 5'-32P
T1 sequence (looked up): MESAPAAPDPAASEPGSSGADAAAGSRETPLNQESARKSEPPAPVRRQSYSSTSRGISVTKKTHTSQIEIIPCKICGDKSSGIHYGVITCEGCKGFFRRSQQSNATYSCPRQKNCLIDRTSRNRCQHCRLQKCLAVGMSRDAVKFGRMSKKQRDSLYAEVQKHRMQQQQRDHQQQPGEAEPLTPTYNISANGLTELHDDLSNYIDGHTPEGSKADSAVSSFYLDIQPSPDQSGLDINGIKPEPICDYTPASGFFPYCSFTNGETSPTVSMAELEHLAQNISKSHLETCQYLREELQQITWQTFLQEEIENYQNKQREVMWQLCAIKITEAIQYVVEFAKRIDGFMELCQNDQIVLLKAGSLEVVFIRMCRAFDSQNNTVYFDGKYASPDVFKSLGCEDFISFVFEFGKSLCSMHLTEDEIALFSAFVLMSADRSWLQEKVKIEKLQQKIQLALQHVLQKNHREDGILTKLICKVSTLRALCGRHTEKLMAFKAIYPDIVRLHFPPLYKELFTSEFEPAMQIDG

[2] = target: T1, hRORα1 (RORA isoform 1) (Homo sapiens); experiment: activity in cells; conditions: protein in cells, protein details: expressed from pCDNA3/pCMX/pSG5 vectors, only the site is given

“GATCTGATATAAAACAGGTGCGAACCCTC / GATCGAGGGTTCTGACCTGTTTTATATCA [hCIIITaTaWT (-34/-10)]”: binds [1].
With “GATCCTCAGTGCCTGCTGCCCTGGAGATGATATAA / GATCTTATATCATCTCCAGGGCAGCAGGCACTGAG [(-27/-58) multimer Tk reporter]” the “activity on this sequence” value ([2]; insensitive) was “not active”.
“GATCTCAGCAGGTGACCTTTGCCCAGCGCCC / GATCGGGCGCTGGGCAAAGGTCACCTGCTGA [hCIIIC3PDR1WT (-90/-64)]”: binds more weakly [1].
With “GGAAAAGTGTGTCACTGGGGCACG (double strand) [(RevDR2)3x Tk reporter]” the “activity on this sequence” value ([2]; increased sensitivity) was “active”.
For “GATCCTTGCCCAGCGCCCTGGGTCCTCAGTGCCTGA / GATCTCAGGCACTGAGGACCCAGGGCGCTGGGCAAG [(-47/-79) Tk reporter]”, the “activity on this sequence” value ([2]; insensitive) was “not active”.
In the case of “GATCCAGACATAAATAGGCCCTGCAAGAGCA / GATCTGCTCTTGCAGGGCCTATTTATGTCTG [hAITaTa Tk reporter]”, the “activity on this sequence” value ([2]; insensitive) is reported as “not active”.
“GATCTCATCTCCACTGGTCAGCAGGTGACCTTTGCCCAGCGCCCTG / GATCCAGGGCGCTGGGCAAAGGTCACCTGCTGACCAGTGGAGATGA [hCIII(-62/-102)]”: binds more weakly ([1]; specific but weak).
